From paper PMC4384122
Results are given in words; binding and its absence hold for the method and conditions named. In cells and extracts the contact can be indirect. A result given as binding can be weak or reduced; the word gives no strength.

Sequences of proteins named here, by UniProt entry; tags and fusion partners are left off. A change or cut given only in a name is not applied to a line headed by its entry.
UniProt P23258: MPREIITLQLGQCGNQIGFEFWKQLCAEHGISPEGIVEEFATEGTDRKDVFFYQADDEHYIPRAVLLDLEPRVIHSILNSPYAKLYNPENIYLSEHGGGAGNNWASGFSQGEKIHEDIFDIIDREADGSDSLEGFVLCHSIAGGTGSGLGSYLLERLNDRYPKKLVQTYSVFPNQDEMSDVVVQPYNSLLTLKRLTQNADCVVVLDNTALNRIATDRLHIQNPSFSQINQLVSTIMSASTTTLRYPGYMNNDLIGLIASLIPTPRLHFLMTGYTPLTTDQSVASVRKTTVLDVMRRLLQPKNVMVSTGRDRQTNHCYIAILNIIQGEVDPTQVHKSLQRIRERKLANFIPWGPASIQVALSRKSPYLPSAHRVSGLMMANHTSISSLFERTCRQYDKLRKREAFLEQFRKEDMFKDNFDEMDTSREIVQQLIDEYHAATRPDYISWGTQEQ
UniProt P00519: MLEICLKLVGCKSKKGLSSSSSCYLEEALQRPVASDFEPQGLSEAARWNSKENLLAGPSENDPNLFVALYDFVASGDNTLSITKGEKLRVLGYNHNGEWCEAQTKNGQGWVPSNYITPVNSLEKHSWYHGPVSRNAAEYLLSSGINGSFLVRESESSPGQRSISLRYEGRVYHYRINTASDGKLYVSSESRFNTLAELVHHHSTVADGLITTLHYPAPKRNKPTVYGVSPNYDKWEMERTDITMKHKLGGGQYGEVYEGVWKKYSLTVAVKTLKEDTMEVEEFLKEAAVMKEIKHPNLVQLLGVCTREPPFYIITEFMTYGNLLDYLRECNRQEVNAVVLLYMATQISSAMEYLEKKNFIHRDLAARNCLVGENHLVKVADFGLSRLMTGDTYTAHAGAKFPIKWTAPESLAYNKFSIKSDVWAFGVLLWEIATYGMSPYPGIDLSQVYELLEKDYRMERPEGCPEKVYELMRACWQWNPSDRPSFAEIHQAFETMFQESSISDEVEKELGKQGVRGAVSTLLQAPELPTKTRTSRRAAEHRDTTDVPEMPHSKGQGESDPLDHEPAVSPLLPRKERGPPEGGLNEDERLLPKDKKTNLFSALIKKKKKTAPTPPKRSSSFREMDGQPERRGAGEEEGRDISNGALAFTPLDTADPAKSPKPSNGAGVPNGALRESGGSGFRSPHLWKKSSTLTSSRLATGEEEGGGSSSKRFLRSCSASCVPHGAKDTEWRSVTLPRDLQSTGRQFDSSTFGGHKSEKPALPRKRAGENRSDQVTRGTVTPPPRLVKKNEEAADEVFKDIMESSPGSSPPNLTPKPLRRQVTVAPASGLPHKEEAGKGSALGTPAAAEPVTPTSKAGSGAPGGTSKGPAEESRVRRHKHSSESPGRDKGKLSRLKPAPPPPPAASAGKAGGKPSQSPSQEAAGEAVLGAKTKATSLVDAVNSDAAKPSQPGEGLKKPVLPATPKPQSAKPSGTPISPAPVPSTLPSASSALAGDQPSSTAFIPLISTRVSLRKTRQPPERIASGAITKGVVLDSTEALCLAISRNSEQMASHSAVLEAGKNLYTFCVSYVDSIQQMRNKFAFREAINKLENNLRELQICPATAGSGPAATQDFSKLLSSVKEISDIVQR
UniProt Q15717: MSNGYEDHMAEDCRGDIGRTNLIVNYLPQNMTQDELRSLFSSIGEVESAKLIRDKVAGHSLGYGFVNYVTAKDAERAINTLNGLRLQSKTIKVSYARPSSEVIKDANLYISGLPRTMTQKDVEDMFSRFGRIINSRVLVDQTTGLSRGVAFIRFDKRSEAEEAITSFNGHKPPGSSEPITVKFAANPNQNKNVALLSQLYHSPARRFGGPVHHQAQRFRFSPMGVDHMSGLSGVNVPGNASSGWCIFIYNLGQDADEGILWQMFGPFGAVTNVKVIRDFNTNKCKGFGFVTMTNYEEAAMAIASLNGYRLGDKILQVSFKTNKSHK

Target: γ-tubulin, endogenous (human (endogenous in U251)) (UniProt P23258)
Assay: co-IP; immunoprecipitation with γ-tubulin antibody on IP matrix from U251 cell lysates, 6 h at 4 °C; cells in control condition or treated with EGF/bFGF; rabbit IgG as control; Western blot

Row | binding | Substance
1 | binds | Abl-1 kinase, endogenous (from UniProt P00519 1-1130) (enzyme)
2 | no binding | EGFR, endogenous (from UniProt P00533 25-1210) (receptor)
3 | binds | HuR (mRNA binding protein HuR), endogenous (from UniProt Q15717 1-326)
